According to the supplement of paper PMC12067093, “Discovery and optimisation of a covalent ligand for TRIM25 and its application to targeted protein ubiquitination” (Chemical Science, 2025):
Some of the results follow.

Compound: Cc1cc(ccc1-c1ccccc1)C(=O)N1CCCN(CC1)C(=O)CCl [compound 10]
Experiment: probe-labelled cysteine peptide fold change vs DMSO (competition) (log2 fold change); higher = less target engagement (more negative = stronger competition)
Conditions: THP-1, incubation time: 4 h
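Note: competitive profiling in live THP-1 cells: cysteine peptides tagged with an iodoacetamide desthiobiotin (IA-DTB) probe, intensity after compound treatment relative to DMSO-treated cells.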

| Target | probe-labelled cysteine peptide fold change (10 µM) | probe-labelled cysteine peptide fold change (50 µM) |
| --- | --- | --- |
| PPOX_P50336_258_GQPVCGLSLQAEGR (UniProt P50336) | -0.104 | 0.0901 |
| PREB_Q9HCU5_280_QPPPCYLTAWDGSNFLPLR (UniProt Q9HCU5) | 0.0926 | 0.175 |
| PREB_Q9HCU5_280_LRQPPPCYLTAWDGSNFLPLR (UniProt Q9HCU5) | 0.0286 | -0.169 |
| PRDX1_Q06830_71+83_KLNCQVIGASVDSHFCHLAWVNTPK (UniProt Q06830) | 0.0063 | -0.175 |
| PREX1_Q8TCU6_52_LCVLNEILGTERDYVGTLR (UniProt Q8TCU6) | -0.0586 | -0.351 |
| PPWD1_Q96BP3_98_DVITHVVCTK (UniProt Q96BP3) | 0.146 | 0.231 |
| PPP2R5C_Q13362_49_QCCVLFDFVSDPLSDLK (UniProt Q13362) | 0.0209 | -0.109 |
| PRAME_P78395_188_EGACDELFSYLIEK (UniProt P78395) | -0.0075 | -0.148 |
| PPP1R11_O60927_62_CCCIYEK (UniProt O60927) | -0.000995 | -0.111 |
| PREX1_Q8TCU6_1583_LGACQMVMCGTGMQR (UniProt Q8TCU6) | 0.0633 | 0.0388 |
| PRC1_O43663_322_QAFAPFCAEDYTESLLQLHDAEIVR (UniProt O43663) | 0.426 | 0.522 |
| PPP4R1_Q8TF05_663_QNWHCLR (UniProt Q8TF05) | 0.0257 | -0.088 |
| PPP5C_P53041_208_CAYQILVQVK (UniProt P53041) | 0.218 | -0.0816 |
| PREPL_Q4J6C6_409_NCPFQLCSPIRPPK (UniProt Q4J6C6) | 0.0194 | 0.034 |
| PPP6R1_Q9UPN7_437_HLLQQCR (UniProt Q9UPN7) | -0.00658 | 0.0142 |
| PREX1_Q8TCU6_1612_CIMQATDIMR (UniProt Q8TCU6) | -0.0971 | 0.0897 |
| PPP5C_P53041_404_RGVSCQFGPDVTK (UniProt P53041) | -0.00883 | -0.103 |
| PPM1A_P35813_268_VCNEVVDTCLYK (UniProt P35813) | 0.0697 | 0.0497 |
| PREB_Q9HCU5_128_CGAETQHEGLELR (UniProt Q9HCU5) | 0.0177 | -0.119 |

| Target | probe-labelled cysteine peptide fold change (10 µM) | probe-labelled cysteine peptide fold change (50 µM) |
| --- | --- | --- |
| PRDX4_Q13162_148_SINTEVVACSVDSQFTHLAWINTPR (UniProt Q13162) | 0.036 | 0.311 |
| PRC1_O43663_14_RSEVLAEESIVCLQK (UniProt O43663) | 0.102 | -0.333 |
| PPP1R3G_B7ZBB8_225_VQCSTASGAEVK (UniProt B7ZBB8) | -0.163 | -0.289 |
| PPP1CA_P62136_202_IMRPTDVPDQGLLCDLLWSDPDKDVQGWGENDR (UniProt P62136) | -0.137 | -0.728 |
| PRAM1_Q96QH2_629_RGEILEVIEFTSNEEMLCRDPK (UniProt Q96QH2) | -0.0126 | -0.0245 |
| PPP4R2_Q9NY27_296_QHCTEEDEEEDEEEEEESFMTSR (UniProt Q9NY27) | -0.407 | -0.304 |
| PPP1R10_Q96QC0_463_VPWVCPR (UniProt Q96QC0) | -0.0231 | 0.000192 |
| PPP1R9B_Q96SB3_270_ERCPAGQQPPQHR (UniProt Q96SB3) | -0.121 | -0.262 |
| PPP2R2D_Q66LE6_245_SFNIVDIKPANMEELTEVITAAEFHPHQCNVFVYSSSK (UniProt Q66LE6) | -0.00789 | -0.502 |
| PPM1F_P49593_359_ALTGSEDYLLLACDGFFDVVPHQEVVGLVQSHLTR (UniProt P49593) | -0.274 | -0.206 |
| PREX1_Q8TCU6_572_EEAVALGVGLCNNGFMHHVLEK (UniProt Q8TCU6) | 0.0448 | -0.00475 |
| PPP6R3_Q5H9R7_830_LSTSQDAACK (UniProt Q5H9R7) | -0.432 | -0.549 |
| PRDX3_P30048_229_AFQYVETHGEVCPANWTPDSPTIKPSPAASK (UniProt P30048) | -0.0592 | -0.275 |
| PRDX1_Q06830_83_KLNCQVIGASVDSHFCHLAWVNTPK (UniProt Q06830) | 0.0758 | -0.191 |
| PPP6R3_Q5H9R7_844_CAAPRPPSSSPEQR (UniProt Q5H9R7) | 0.018 | -0.199 |
| PREP_P48147_526_QNCFDDFQCAAEYLIK (UniProt P48147) | -0.352 | -0.0694 |
| PREX1_Q8TCU6_936_IACYQEFAAQLK (UniProt Q8TCU6) | 0.102 | -0.184 |
| PREP_P48147_255_EGCDPVNR (UniProt P48147) | 0.0137 | -0.401 |
| PREX1_Q8TCU6_836_LSLCEDSPMVTLTVDNVHLEHGVVYEYVSTAGVR (UniProt Q8TCU6) | -0.0714 | 0.185 |

Rewritten as tab-separated lines: entries from further up.
Target	probe-labelled cysteine peptide fold change (10 µM)	probe-labelled cysteine peptide fold change (50 µM)
PPP1R3G_B7ZBB8_225_VQCSTASGAEVK (UniProt B7ZBB8)	-0.163	-0.289
PPP1CA_P62136_202_IMRPTDVPDQGLLCDLLWSDPDKDVQGWGENDR (UniProt P62136)	-0.137	-0.728
PRAM1_Q96QH2_629_RGEILEVIEFTSNEEMLCRDPK (UniProt Q96QH2)	-0.0126	-0.0245
PPP4R2_Q9NY27_296_QHCTEEDEEEDEEEEEESFMTSR (UniProt Q9NY27)	-0.407	-0.304
PPP1R10_Q96QC0_463_VPWVCPR (UniProt Q96QC0)	-0.0231	0.000192
PPP1R9B_Q96SB3_270_ERCPAGQQPPQHR (UniProt Q96SB3)	-0.121	-0.262
PPP2R2D_Q66LE6_245_SFNIVDIKPANMEELTEVITAAEFHPHQCNVFVYSSSK (UniProt Q66LE6)	-0.00789	-0.502
PPM1F_P49593_359_ALTGSEDYLLLACDGFFDVVPHQEVVGLVQSHLTR (UniProt P49593)	-0.274	-0.206
PREX1_Q8TCU6_572_EEAVALGVGLCNNGFMHHVLEK (UniProt Q8TCU6)	0.0448	-0.00475
PPP6R3_Q5H9R7_830_LSTSQDAACK (UniProt Q5H9R7)	-0.432	-0.549
PRDX3_P30048_229_AFQYVETHGEVCPANWTPDSPTIKPSPAASK (UniProt P30048)	-0.0592	-0.275
PRDX1_Q06830_83_KLNCQVIGASVDSHFCHLAWVNTPK (UniProt Q06830)	0.0758	-0.191
